Laboratory results: patent publication US20220031684A1, “PROPHYLACTIC EFFICACY OF SEROTONIN 4 RECEPTOR AGONISTS AGAINST STRESS” (THE TRUSTEES OF COLUMBIA UNIVERSITY IN THE CITY OF NEW YORK, priority 2019, published 2022)
Structures can show the parent of a compound that is named as a salt.

Experiments:
Assay type in all cases: in vivo
BALB/cJRj mice [1] = experiment: Novelty suppressed feeding (NSF), acute anxiolytic-like effect
Procedure: RS67333 (1.5 mg/kg, i.p.), diazepam (1.5 mg/kg, i.p.), fluoxetine (18 mg/kg, i.p.) were injected 45 min before testing in the Elevated Plus Maze (EPM), the Novelty Suppressed Feeding (NSF) or the Open Field (OF) in three independent cohorts of male BALB/cJRj mice.
To ensure the selectivity of the anxiolytic-like effects of RS67333, in a new cohort of male BALB/cJRj mice, GR125487 (1.0 mg/kg, i.p.) dissolved in 0.9% NaCl solution, was injected 15 minutes before RS67333 administration (1.5 mg/kg, i.p.). EPM or NSF occurred 45 min after RS67333 administration (A-S1). Behavioral consequences of the co-administration of GR125487+RS67333 were compared to RS67333 alone, diazepam (1.5 mg/kg, i.p.) fluoxetine (18 mg/kg, i.p.) and vehicle groups (0.9% saline solution, i.p.).
For mPFC drug infusion, two bilateral cannulae (75 μm-diameter silica capillary tubing inserted in 27G stainless steel catheter) were implanted in the mPFC [stereotaxic coordinates in mm from bregma: A=+2.10, L=±0.50, V=−2.60, A, anterior; L, lateral; and V, ventral, according to (A-S10)] under anesthesia (chloral hydrate, 400 mg/kg, i.p.). […] Diazepam (1.5 mg/kg) was used as a positive control.
The NSF is a conflict test that elicits competing motivations: the drive to eat and the fear of venturing into the center of a brightly lit arena. The latency to begin eating is used as an index of anxiety/depression-like behavior, because classical anxiolytic drugs as well as chronic antidepressants decrease this measure. The NSF test was carried out during a 10 min period as previously described (A-S12). Briefly, the testing apparatus consisted of a plastic box (50×50×20 cm), the floor of which was covered with approximately 2 cm of wooden bedding. Twenty-four hours prior to behavioral testing, all food was removed from the home cage. At the time of testing, a single pellet of food (regular chow) was placed on a white paper platform positioned in the center of the box. Each animal was placed in a corner of the box, and a stopwatch was immediately started. The latency to eat (defined as the mouse sitting on its haunches and biting the pellet with the use of forepaws) was timed. Immediately afterwards, the animal was transferred to its home cage, and the amount of food consumed by the mouse in the subsequent 5 min was measured, serving as a control for change in appetite as a possible confounding factor.

BALB/cJRj mice [2] = experiment: EPM with optogenetic inhibition of mPFC terminals in the DRN (CaMKII-ArchT); conditions: CaMKII-ArchT-mPFC injected mice; systemic RS67333 1.5 mg/kg or diazepam 1.5 mg/kg
Procedure: The EPM is a widely used behavioral assay for rodents and it has been validated to assess the anti-anxiety effects of pharmacological agents (A-S11). This test was performed as described by (A-S1). The maze is a plus-cross-shaped apparatus, with two open arms and two arms closed by walls linked by a central platform 50 cm above the floor. Mice were individually put in the center of the maze facing an open arm and were allowed to explore the maze during 5 min for the behavioral consequences of an acute systemic administration or mPFC infusion and during 6 min for the optogenetic experiments. The time spent in and the numbers of entries into the open arms were used as an anxiety index. All parameters were measured using a videotracker (EPM3C, Bioseb, Vitrolles, France).
To target opsin expression selectively to cortical glutamatergic terminals in the DRN, AAV5-CaMKIIα-ChR2-enhanced yellow fluorescent protein (eYFP), AAV5-CaMKII-ArchT-green fluorescent protein (GFP) or AAV5-CaMKII-eYFP, obtained from Karl Deisseroth and Ed Boyden (UNC Vector Core, NC, USA) were bilaterally injected into the mPFC (in mm from bregma, A=+2.10, L=±0.50, V=−2.60). Mice injected with AAV5-CamKII-eYFP were used as control.
BALB/cJRj mice were surgically implanted with fiber optics targeted to the DRN (in mm from bregma, A=−4.50, L=+1.20, V=−4.0, angle 15°). […]

129S6/SvEv mice = experiment: Open field (OF) after CFC
Procedure: This chronic CORT elevation dysregulates the hypothalamic-pituitary-adrenal axis (HPA) in a manner similar to that observed in clinical depression. The dose and duration of CORT treatment was selected based on previous studies. CORT (35 μg/ml, equivalent to about 5 mg/kg/day) dissolved in 0.45% hydroxypropyl-o-cyclodextrin (0-CD) or vehicle (VEH) (0.45% j-CD) was available ad libitum in the drinking water in opaque bottles to protect it from light. VEH- and CORT-treated water was changed every 3 days to prevent possible degradation. Contextual Fear Conditioning (CFC): A 3-shock CFC procedure was administered as previously published. Briefly, mice were placed into context A and administered 3 2-s shocks (0.75 mA) at 180 s, 240 s or 300 s following placement into context A. Mice were removed from the context 15 s following the termination of shock (at 317 s). For context retrieval, mice were placed back into context A for 300 s. Electrophysiology: Electrophysiology was conducted as previously described. Statistical Analysis: Results from data analyses are expressed as means±SEM. Alpha was set to 0.05 for all analyses. Data were analyzed using GraphPad Prism v7.0 or v8.0. For all experiments, unless otherwise noted, one- or two-way ANOVAs with repeated-measures were applied to the data as appropriate. […] Videos were scored using ANY-maze behavior tracking software (Stoelting, Wood Dale, Ill.). […]

[3] = i.p. 45 min before testing, RS67333 1.5, diazepam 1.5 mg/kg

| SMILES | food consumption (NSF) (BALB/cJRj mice [1]; GR125487 1 mg/kg i.p. 15 min before RS67333 1.5 mg/kg i.p.) | home-cage food consumption (NSF) (BALB/cJRj mice [1]; [3]) | locomotor activity (EPM), OFF epoch (BALB/cJRj mice [2]) | distance travelled in the OF (129S6/SvEv mice; female 129S6/SvEv, 1.5 or 10 mg/kg) | distance travelled in the OF vs saline (129S6/SvEv mice; male 129S6/SvEv, 10 mg/kg) | home-cage food consumption (NSF) (BALB/cJRj mice [1]; intra-mPFC infusion of RS67333 45 min before testing) | consumption of food in a familiar environment (NSF) (BALB/cJRj mice [1]; single dose 1.5 mg/kg, 72 hours after the injection) |
| --- | --- | --- | --- | --- | --- | --- | --- |
| COc1[nH]c2ccc(F)cc2c1C(=O)OCC1CCN(CCNS(C)(=O)=O)CC1.NS(=O)(=O)O [GR125487, 5-Fluoro-2-methoxy-[1-[2-[(methylsulfonyl)amino]ethyl]-4-piperidinyl]-1H-indole-3-methylcarboxylate sulfamate] | without affecting food consumption |  |  |  |  |  |  |
| CN1C(=O)CN=C(c2ccccc2)c2cc(Cl)ccc21 [diazepam, Diazepam hydrochloride] |  | without affecting the home-cage food consumption | without affecting locomotor activity |  |  |  |  |
| CCCCN1CCC(CCC(=O)c2cc(Cl)c(N)cc2OC)CC1.Cl [RS-67,333, 1-(4-amino-5-chloro-2-methoxyphenyl)-3-[1(n-butyl)-4-piperidinyl]-1-propanone HCl] |  | without affecting the home-cage food consumption | without affecting locomotor activity | did not alter | comparable distance | without affecting the home-cage food consumption | without affecting the consumption of food |
